Experimental data: publication PMC12204631

T1: 6HIS-HA-JHD2 (S. cerevisiae) (UniProt P47156)
T1 sequence: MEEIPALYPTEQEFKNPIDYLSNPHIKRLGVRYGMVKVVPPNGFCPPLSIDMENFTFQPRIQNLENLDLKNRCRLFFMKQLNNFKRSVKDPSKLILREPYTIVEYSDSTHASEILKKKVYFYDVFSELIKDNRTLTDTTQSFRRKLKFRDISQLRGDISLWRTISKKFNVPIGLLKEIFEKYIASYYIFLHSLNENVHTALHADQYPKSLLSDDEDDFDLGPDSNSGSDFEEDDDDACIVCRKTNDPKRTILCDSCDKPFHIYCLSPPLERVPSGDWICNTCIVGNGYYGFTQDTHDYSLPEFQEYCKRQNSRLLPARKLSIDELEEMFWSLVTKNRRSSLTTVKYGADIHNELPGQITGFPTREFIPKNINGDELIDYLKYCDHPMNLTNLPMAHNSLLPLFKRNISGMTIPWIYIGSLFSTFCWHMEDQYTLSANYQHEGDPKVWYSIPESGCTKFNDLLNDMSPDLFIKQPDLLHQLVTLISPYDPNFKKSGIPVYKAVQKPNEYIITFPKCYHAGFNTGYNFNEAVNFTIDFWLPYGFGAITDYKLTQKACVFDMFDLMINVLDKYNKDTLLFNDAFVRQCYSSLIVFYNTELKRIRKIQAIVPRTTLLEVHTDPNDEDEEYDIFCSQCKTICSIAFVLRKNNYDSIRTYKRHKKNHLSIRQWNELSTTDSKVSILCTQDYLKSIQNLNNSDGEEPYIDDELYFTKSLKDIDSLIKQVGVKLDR


Biological target: T1, 6HIS-HA-JHD2 (S. cerevisiae)
Test: affinity purification with mass spectrometry; whole cell extracts of a wild-type strain with 6HIS-HA-JHD2 induced from the GAL1 promoter for 6 hours; Ni-NTA agarose and anti-HA agarose beads at 4°C for 24 hours; proteins found with the empty vector strain excluded

| Binder | binding |
| --- | --- |
| APQ12 (protein, UniProt P40532 1-138) MDATQPQYELSVVTQCLKSAIDVIQWLIPTITKFSQSHPLVFQLLFIFFTFYVFYKLLMNFITLVKRFLYLTLVVTCIGIYMRGSQQFLTVDLLNFYNFVMSNRYYAFKIYTLFINALEREINTVYHLAQMKMEQLLK | binds |
| LOS1 (protein, UniProt P33418 1-1100) MLERIQQLVNAVNDPRSDVATKRQAIELLNGIKSSENALEIFISLVINENSNDLLKFYGLSTLIELMTEGVNANPNGLNLVKFEITKWLKFQVLGNKQTKLPDFLMNKISEVLTTLFMLMYSDCNGNQWNSFFDDLMSLFQVDSAISNTSPSTDGNILLGLEFFNKLCLMINSEIADQSFIRSKESQLKNNNIKDWMRDNDIMKLSNVWFQCLKLDEQIVSQCPGLINSTLDCIGSFISWIDINLIIDANNYYLQLIYKFLNLKETKISCYNCILAIISKKMKPMDKLAFLNMINLTNELTYYHQAISMNPQIITFDNLEVWESLTKLITSFGIEFTIIIEQVNDDQKLDTLYKQSVISNVDSILLEKIIPILLEFMNNEFDSITAKTFPFWSNYLAFLKKYKASSPNFVPLHKDFLDNFQQICFKRMKFSDDEVTQDDFEEFNETVRFKLKNFQEIIVVIDPSLFLNNISQEISANLMNCKNESWQIFELTIYQIFNLSECTKNNYFGLNKNEIMTSQPSLTLVRFLNELLMMKDFLLAIDNEQIQILFMELIVKNYNFIFSTSANTANATDDDEKYLLILNIFMSSFAMFNKRENVRLRSWYLFTRFLKLTRINLKKILFANKNLVNEITNKISPLLHIKVTSINAQGTDDNDTIFDNQLYIFEGIGFIITLNNSSQELTAATANTPIDYDILDQILTPLFTQLEGCITQGASPVVILECHHILMAIGTLARGLHIGLVPENQVNNMVVNKKLINDSLIHKFSNIAEVILVTFSFFNKFENIRDASRFTFARLIPILSNKILPFINKLIELILSSTDLKSWEMIDFLGFLSQLIHMFHTDTDCYQLFNQLLTPLINKVHSIIEEIDEQHDQQSSSNKPIDTAVTATSVNKNIVVTDSYRDKILLKKAYCTFLQSFTNNSVTSILLSDINRAILPVILNDLVTYTPQEIQETSMMKVSLNVLCNFIKCFGNGTCLDNDDINKDPNLKIDGLNEYFIMKCVPIIFEIPFNPIYKFNIKEGNFKTMAYDLARLLRELFIVSSNPTTNENECVKYLTQIYLPQIQLPQELTIQLVNMLTTMGQKQFEKWFVDNFISVLKQGQ | binds |
| ASM4 (protein, UniProt Q05166 1-528) MFGIRSGNNNGGFTNLTSQAPQTTQMFQSQSQLQPQPQPQPQQQQQHLQFNGSSDASSLRFGNSLSNTVNANNYSSNIGNNSINNNNIKNGTNNISQHGQGNNPSWVNNPKKRFTPHTVIRRKTTKQNSSSDINQNDDSSSMNATMRNFSKQNQDSKHNERNKSAANNDINSLLSNFNDIPPSVTLQDWQREDEFGSIPSLTTQFVTDKYTAKKTNRSAYDSKNTPNVFDKDSYVRIANIEQNHLDNNYNTAETNNKVHETSSKSSSLSAIIVFGYPESISNELIEHFSHFGHIMEDFQVLRLGRGINPNTFRIFHNHDTGCDENDSTVNKSITLKGRNNESNNKKYPIFTGESWVKLTYNSPSSALRALQENGTIFRGSLIGCIPYSKNAVEQLAGCKIDNVDDIGEFNVSMYQNSSTSSTSNTPSPPNVIITDGTLLREDDNTPAGHAGNPTNISSPIVANSPNKRLDVIDGKLPFMQNAGPNSNIPNLLRNLESKMRQQEAKYRNNEPAGFTHKLSNWLFGWNDL | binds |
| MEX67 (protein, UniProt Q99257 1-599) MSGFHNVGNINMMAQQQMQQNRIKISVRNWQNATMNDLINFISRNARVAVYDAHVEGPLVIGYVNSKAEAESLMKWNGVRFAGSNLKFELLDNNGASAGTSDTISFLRGVLLKRYDPQTKLLNLGALHSDPELIQKGVFSSISTQSKMFPAMMKLASTEKSLIVESVNLADNQLKDISAISTLAQTFPNLKNLCLANNQIFRFRSLEVWKNKFKDLRELLMTNNPITTDKLYRTEMLRLFPKLVVLDNVIVRDEQKLQTVYSLPMKIQQFFFENDALGQSSTDFATNFLNLWDNNREQLLNLYSPQSQFSVSVDSTIPPSTVTDSDQTPAFGYYMSSSRNISKVSSEKSIQQRLSIGQESINSIFKTLPKTKHHLQEQPNEYSMETISYPQINGFVITLHGFFEETGKPELESNKKTGKNNYQKNRRYNHGYNSTSNNKLSKKSFDRTWVIVPMNNSVIIASDLLTVRAYSTGAWKTASIAIAQPPQQQASVLPQVASMNPNITTPPQPQPSVVPGGMSIPGAPQGAMVMAPTLQLPPDVQSRLNPVQLELLNKLHLETKLNAEYTFMLAEQSNWNYEVAIKGFQSSMNGIPREAFVQF | binds |
| NUP53 (protein, UniProt Q03790 1-475) MADLQKQENSSRFTNVSVIAPESQGQHEQQKQQEQLEQQKQPTGLLKGLNGFPSAPQPLFMEDPPSTVSGELNDNPAWFNNPRKRAIPNSIIKRSNGQSLSPVRSDSADVPAFSNSNGFNNVTFGSKKDPRILKNVSPNDNNSANNNAHSSDLGTVVFDSNEAPPKTSLADWQKEDGIFSSKTDNIEDPNLSSNITFDGKPTATPSPFRPLEKTSRILNFFDKNTKTTPNTASSEASAGSKEGASTNWDDHAIIIFGYPETIANSIILHFANFGEILEDFRVIKDFKKLNSKNMSKSPSLTAQKYPIYTGDGWVKLTYKSELSKSRALQENGIIMNGTLIGCVSYSPAALKQLASLKKSEEIINNKTSSQTSLSSKDLSNYRKTEGIFEKAKAKAVTSKVRNAEFKVSKNSTSFKNPRRLEIKDGRSLFLRNRGKIHSGVLSSIESDLKKREQASKSKKSWLNRLNNWLFGWNDL | binds |

The next lines start with the values.

| binding | Binder |
| --- | --- |
| binds | NUP133 (protein, UniProt P36161 1-1157) MSEKKVHLRLRKELSVPIAVVENESLAQLSYEEESQASLMDISMEQQQLRLHSHFDNSKVFTENNRYIVKTLQTDYSSGFSNDDELNGYIDMQIGYGLVNDHKKVYIWNIHSTQKDTPYITVPFRSDDNDEIAVAPRCILTFPATMDESPLALNPNDQDETGGLIIIKGSKAIYYEDINSINNLNFKLSEKFSHELELPINSSGGEKCDLMLNCEPAGIVLSTNMGRIFFITIRNSMGKPQLKLGKLLNKPFKLGIWSKIFNTNSSVVSLRNGPILGKGTRLVYITTNKGIFQTWQLSATNSHPTKLIDVNIYEAILESLQDLYPFAHGTLKIWDSHPLQDESSQLFLSSIYDSSCNETYYILSTIIFDSSSNSFTIFSTYRLNTFMESITDTKFKPKIFIPQMENANDTNEVTSILVMFPNAVVITQVNSKLDSSYSMRRKWEDIVSLRNDIDIIGSGYDSKSLYVLTKQMGVLQFFVKENEETNSKPEVGFVKSHVDQAVYFSKINANPIDFNLPPEISLDQESIEHDLKLTSEEIFHSNGKYIPPMLNTLGQHLSVRKEFFQNFLTFVAKNFNYKISPELKLDLIEKFEILNCCIKFNSIIRQSDVLNDIWEKTLSNYNLTQNEHLTTKTVVINSPDVFPVIFKQFLNHVVFVLFPSQNQNFKLNVTNLINLCFYDGILEEGEKTIRYELLELDPMEVDTSKLPWFINFDYLNCINQCFFDFTFACEEEGSLDSYKEGLLKIVKILYYQFNQFKIWINTQPVKSVNANDNFININNLYDDNHLDWNHVLCKVNLKEQCIQIAEFYKDLSGLVQTLQTLDQNDSTTVSLYETFFNEFPKEFSFTLFEYLIKHKKLNDLIFRFPQQHDVLIQFFQESAPKYGHVAWIQQILDGSYADAMNTLKNITVDDSKKGESLSECELHLNVAKLSSLLVEKDNLDINTLRKIQYNLDTIDAEKNISNKLKKGEVQICKRFKNGSIREVFNILVEELKSTTVVNLSDLVELYSMLDDEESLFIPLRLLSVDGNLLNFEVKKFLNALVWRRIVLLNASNEGDKLLQHIVKRVFDEELPKNNDFPLPSVDLLCDKSLLTPEYISETYGRFPIDQNAIREEIYEEISQVETLNSDNSLEIKLHSTIGSVAKEKNYTINYETNTVEY |
| binds | TRM11 (protein, UniProt Q12463 1-433) MKKYLLYMVQVHLNFRRAELESLADLYNLSIDFSQYDANSPFFIVELENDQQAKDWIKRSILTRGIYEYWGQGTTLDELHKDIQRQSNFEQDLQLKFKHSTFKFEFECYKGNSKAKRVEQIETFRYLGFEGKIDMKHPQEVFTVIEEYTPISENVGGKTPTRIYFGRQVQMSNRSAMEKYDLKKRPYKGTTSFEAELSLVSANIAQVKPGTIMYDPFAGTGSFLVAGGHFGSLVIGSDIDGRMIRGKGAQVNISANFKKYGESSQFLDVLTMDFTNNALRNNLVIDTILCDPPYGIRESIKVLGAKDPERFLGKEDMEIDGEKAYLRRDYIPTKKPYALDSLLDDLLQYSSERLPIGGRLAFWMPTANDANIETIVPMHENLELKYNCVQEFNKWSRRLLVYINRGSTFNGSSNHGIKRSKDNFRERYFNNFN |
| binds | TRM44 (protein, UniProt Q02648 1-567) MTGDGSAHISKNNQNQHKDRFKFIVNDKSILGPQWLSLYQTDGKVTFAKSHFEQAMMNVIREPNINSTVILRADILKEINHAAEAGSEPKFDESVLKKFEIDNGNESGEEDVKKINIEDLNIRSCETSESLKLSPVHEFVRRIIPRNFYKDAIINQTCLILNSKDPNFQETSLIVYTPHINSEKDCPFYIPRTQSVGILLHQSVLSVHYIPFPEDKTAFTDESERVVRTAYRLLQTANKHSKGVMQGYEKRVNHDQVVNKVNFQNTYIVLKKKYSKFLVENWAESTDPKKHVFEDIAIAAFLIELWIKVYGPDFRSKMQFRDLGCGNGALCYILLSESIKGLGIDARKRKSWSIYPPEVQSSLKEQVIIPSILLRPHPALKRQVPHLEHNGRFFPVKVTHEVIAPATVVYSSEDLLKSPQVNTAEFPPDTFIIGNHSDELTCWIPLLGHPYMVIPCCSHNFSGQRVRFNVRKRSPRSNEIKNQNNSKSTYSGLVDHVEYISSRVGWKVEKEMLRIPSTRNAAIIGVENATLKHFPTQAVYDMIWEDGGAEGWIQNTMSLLKRNPRNH |

These are yes or no findings as the source states them, for the method shown. Binding seen in cells or lysates may run through a third protein. A yes stands for co-enrichment or nearness to the bait. Other partners may have been found. Sequences can lack the tags named with a protein.
